Assay results taken from the supplement of paper PMC8426693.
The list shows a part of the results.

Tested on: SARS-CoV-2 5_SL8 RNA
Assay: NMR binding call after quantification (hit when 2 of 3 NMR criteria are met) (binary (1 = binding, 0 = not binding)); higher = binding
Details: RNA concentration 10 µM; fragment concentration 200 µM; 293 K

| Structure (SMILES) | NMR binding call |
| --- | --- |
| CC(N)c1ccc(N2CCOCC2)cc1 (stereo unspecified) | 0 |
| CCC(=O)Nc1cccc(N)c1C | 0 |
| Fc1ccc(Cn2cnc3ccccc32)cc1 | 0 |
| Cc1cc(C)nc(NC(=O)Nc2ccccc2)c1 | 0 |
| CC(=O)Nc1ccccc1CC(=O)O | 0 |
| CN(C1CCCCCC1)S(C)(=O)=O | 0 |
| CC(=O)NC(C)c1nnc2ccccn12 (stereo unspecified) | 0 |
| C1CC(c2nc(C3CC3)no2)CN1 (stereo unspecified) | 0 |
| Nc1ccccc1OCc1ccccc1 | 0 |
| Oc1ncc(NC2CCCCC2)c(O)n1 | 0 |
| Cl.Cl.O=C(c1ccncc1)N1CCNCC1 | 0 |

Tested on: SARS-CoV-2 attenuator hairpin (att HP) RNA
Assay: as above
Details: RNA concentration 10 µM; fragment concentration 200 µM; 293 K

| Structure (SMILES) | NMR binding call |
| --- | --- |
| COCC(=O)Nc1nnc(C)s1 | 0 |
| CCN(C)C(=O)c1cccc(N)c1 | 0 |
| O=C(COc1ccccc1)Nc1cccc(F)c1 | 0 |
| CN(C)C(=O)OCCn1ccnc1 | 0 |
| COc1ccc(C(=O)NCC(N)=O)cc1 | 0 |
| CC(C)C(N)C(=O)N1CCOCC1 (stereo unspecified) | 0 |
| CCOC(=O)CN1CCS(=O)(=O)CC1 | 0 |
| CN(C)C(=O)c1ccc(F)cc1Br | 0 |
| Oc1cccc(CN2CCSCC2)c1 | 0 |
| Nc1ccccc1N1CCOCC1 | 0 |
| c1cc(NCC2CCCO2)ccn1 (stereo unspecified) | 0 |
| CNCc1cccc(OC)n1 | 0 |
| CN1CCC(Oc2cccc(F)c2)C1=O (stereo unspecified) | 0 |
| CC(=O)N1CCCC(O)(C(=O)O)C1 (stereo unspecified) | 0 |
| c1coc(CNc2nc3ccccc3[nH]2)c1 | 0 |
| CC1CCCCN1CCN (stereo unspecified) | 0 |
| CN1CCN(C(=O)C2CCCN2)CC1 (stereo unspecified) | 0 |
| CNCC(=O)Nc1cc(C)ccn1 | 0 |
| CC(=O)NC(C(=O)O)C1CCOCC1 (stereo unspecified) | 0 |
| CC1COCCN1Cc1ccccc1F (stereo unspecified) | 0 |

| Structure (SMILES) | NMR binding call |
| --- | --- |
| CCNCc1cn(C)nn1 | 0 |
| COc1ccc2sc(N)nc2c1 | 0 |
| CCOc1c(F)cccc1C(=O)N(C)C | 0 |
| CCC(=O)NC1CCNC1 (stereo unspecified) | 0 |
| Cc1ncsc1C(=O)N1CCCNCC1.Cl.Cl | 0 |
| CC(O)COc1cccc(F)c1 (stereo unspecified) | 0 |
| OC1CCN(Cc2ccc(Cl)cc2)C1 (stereo unspecified) | 0 |
| Cc1sc2ncnc(N(C)C)c2c1C | 0 |
| CC(NC(=O)C1CCCC1)C(=O)O (stereo unspecified) | 0 |
| CC(N)c1ccc(N2CCOCC2)cc1 (stereo unspecified) | 0 |
| CCC(=O)Nc1cccc(N)c1C | 0 |
| Fc1ccc(Cn2cnc3ccccc32)cc1 | 0 |
| Cc1cc(C)nc(NC(=O)Nc2ccccc2)c1 | 0 |
| CC(=O)Nc1ccccc1CC(=O)O | 0 |
| CN(C1CCCCCC1)S(C)(=O)=O | 0 |
| CC(=O)NC(C)c1nnc2ccccn12 (stereo unspecified) | 0 |
| C1CC(c2nc(C3CC3)no2)CN1 (stereo unspecified) | 0 |
| Nc1ccccc1OCc1ccccc1 | 0 |
| Oc1ncc(NC2CCCCC2)c(O)n1 | 0 |
| Cl.Cl.O=C(c1ccncc1)N1CCNCC1 | 0 |

Tested on: SARS-CoV-2 frameshift pseudoknot (PK) RNA
Assay: as above
Details: RNA concentration 10 µM; fragment concentration 200 µM; 293 K

| Structure (SMILES) | NMR binding call |
| --- | --- |
| COCC(=O)Nc1nnc(C)s1 | 0 |
| CCN(C)C(=O)c1cccc(N)c1 | 0 |
| O=C(COc1ccccc1)Nc1cccc(F)c1 | 0 |
| CN(C)C(=O)OCCn1ccnc1 | 0 |
| COc1ccc(C(=O)NCC(N)=O)cc1 | 0 |
| CC(C)C(N)C(=O)N1CCOCC1 (stereo unspecified) | 0 |
| CCOC(=O)CN1CCS(=O)(=O)CC1 | 0 |
| CN(C)C(=O)c1ccc(F)cc1Br | 0 |
| Oc1cccc(CN2CCSCC2)c1 | 0 |
| Nc1ccccc1N1CCOCC1 | 0 |
| c1cc(NCC2CCCO2)ccn1 (stereo unspecified) | 0 |
| CNCc1cccc(OC)n1 | 0 |
| CN1CCC(Oc2cccc(F)c2)C1=O (stereo unspecified) | 0 |
| CC(=O)N1CCCC(O)(C(=O)O)C1 (stereo unspecified) | 0 |
| c1coc(CNc2nc3ccccc3[nH]2)c1 | 0 |
| CC1CCCCN1CCN (stereo unspecified) | 0 |
| CN1CCN(C(=O)C2CCCN2)CC1 (stereo unspecified) | 0 |
| CNCC(=O)Nc1cc(C)ccn1 | 0 |
| CC(=O)NC(C(=O)O)C1CCOCC1 (stereo unspecified) | 0 |
| CC1COCCN1Cc1ccccc1F (stereo unspecified) | 0 |

| Structure (SMILES) | NMR binding call |
| --- | --- |
| CCNCc1cn(C)nn1 | 0 |
| COc1ccc2sc(N)nc2c1 | 0 |
| CCOc1c(F)cccc1C(=O)N(C)C | 0 |
| CCC(=O)NC1CCNC1 (stereo unspecified) | 0 |
| Cc1ncsc1C(=O)N1CCCNCC1.Cl.Cl | 0 |
| CC(O)COc1cccc(F)c1 (stereo unspecified) | 0 |
| OC1CCN(Cc2ccc(Cl)cc2)C1 (stereo unspecified) | 0 |
| Cc1sc2ncnc(N(C)C)c2c1C | 0 |
| CC(NC(=O)C1CCCC1)C(=O)O (stereo unspecified) | 0 |
| CC(N)c1ccc(N2CCOCC2)cc1 (stereo unspecified) | 0 |
| CCC(=O)Nc1cccc(N)c1C | 0 |
| Fc1ccc(Cn2cnc3ccccc32)cc1 | 0 |
| Cc1cc(C)nc(NC(=O)Nc2ccccc2)c1 | 0 |
| CC(=O)Nc1ccccc1CC(=O)O | 0 |
| CN(C1CCCCCC1)S(C)(=O)=O | 0 |
| CC(=O)NC(C)c1nnc2ccccn12 (stereo unspecified) | 0 |
| C1CC(c2nc(C3CC3)no2)CN1 (stereo unspecified) | 0 |
| Nc1ccccc1OCc1ccccc1 | 0 |
| Oc1ncc(NC2CCCCC2)c(O)n1 | 0 |
| Cl.Cl.O=C(c1ccncc1)N1CCNCC1 | 0 |
